# The entries are a selection whose mix differs from that of the whole data set. For part of these data: At the low end of the ranking the order means little. The list shows a part of the results. For part of these data: Construct or isoform of the protein are uncertain.
# Molecular target: T1, GABPA (UniProt Q06546)
# T1 sequence: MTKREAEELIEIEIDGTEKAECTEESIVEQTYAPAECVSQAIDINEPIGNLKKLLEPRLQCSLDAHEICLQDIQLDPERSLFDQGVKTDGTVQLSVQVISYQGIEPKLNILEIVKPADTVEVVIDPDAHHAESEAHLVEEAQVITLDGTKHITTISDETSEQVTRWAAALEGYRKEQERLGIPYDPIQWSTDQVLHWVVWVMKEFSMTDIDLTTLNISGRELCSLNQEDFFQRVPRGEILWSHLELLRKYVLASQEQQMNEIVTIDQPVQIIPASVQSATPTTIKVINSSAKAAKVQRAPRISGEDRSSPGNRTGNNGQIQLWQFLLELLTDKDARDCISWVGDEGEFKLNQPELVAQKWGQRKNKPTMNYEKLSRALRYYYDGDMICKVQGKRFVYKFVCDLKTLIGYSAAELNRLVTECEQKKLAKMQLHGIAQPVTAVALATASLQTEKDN
# Assay: DAPPL (digital affinity profiling via proximity ligation, sequencing)
# Conditions: 10 mM Tris-HCl pH 7.5, 50 mM NaCl, 1 mM DTT, 4% glycerol, room temperature, 30 min; GST-TFs on glutathione beads, 16-mer random dsDNA library, 0.1% …; high values mean tight binding; double strand, one strand shown; scale: fold enrichment (6-mer frequency, TF over GST control)
row,Sequence,binding signal
1,AGGTAC,0.949
2,CGGTAC,0.939
3,GAGGGC,0.644
4,TCGGTG,0.518
5,AGCGTA,0.913
6,GCATAT,0.975
7,GGCAGG,0.615
8,ACAACG,0.95
9,GCAGTT,0.926
10,GGACAC,0.707
11,ACGGTC,0.792
12,CGGGTT,0.833
13,GCGGTA,0.726
14,GGGTAA,0.926
15,TGGGGA,0.898
16,GGATGA,0.998
17,CGCGGA,0.903
18,CGGGGT,0.632
19,GCCCGT,0.721

row,Sequence,binding signal
1,ACCGTG,0.223
2,TGTAGT,0.961
3,GATCCG,0.995
4,GTGCCA,0.785
5,GAGACC,0.201
6,GTCGAT,0.744
7,GCTGGA,0.777
8,CGGCCA,0.825
9,CGGAAT,0.833
10,GGGTCC,0.772
11,GGGATA,0.767
12,AGAGAC,0.476
13,ACAGCG,0.738
14,TCGTAA,0.922
15,AGCCTG,0.893
16,CCCAGG,0.714
17,GCCAAG,0.924
18,GGTACG,0.822
19,AGACGG,0.329

# Molecular target: T2, ETS1 (UniProt P14921)
# T2 sequence: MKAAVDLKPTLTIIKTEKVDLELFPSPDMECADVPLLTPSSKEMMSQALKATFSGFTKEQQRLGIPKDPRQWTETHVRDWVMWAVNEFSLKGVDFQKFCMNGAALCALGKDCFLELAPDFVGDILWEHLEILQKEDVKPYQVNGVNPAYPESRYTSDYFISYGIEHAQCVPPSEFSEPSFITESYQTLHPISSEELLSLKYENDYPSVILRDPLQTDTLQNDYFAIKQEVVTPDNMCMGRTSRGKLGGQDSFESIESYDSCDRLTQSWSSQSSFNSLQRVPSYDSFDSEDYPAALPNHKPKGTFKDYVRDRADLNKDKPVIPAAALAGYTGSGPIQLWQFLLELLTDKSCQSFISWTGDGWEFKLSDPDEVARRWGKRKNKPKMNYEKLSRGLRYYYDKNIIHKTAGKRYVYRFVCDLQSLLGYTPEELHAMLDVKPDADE
# Assay: as above
# Conditions: 10 mM Tris-HCl pH 7.5, 50 mM NaCl, 1 mM DTT, 4% glycerol, room temperature, 30 min; GST-TFs on glutathione beads, 16-mer random dsDNA library, 0.1% …; high values mean tight binding; double strand, one strand shown; scale: fold enrichment (6-mer frequency, TF over GST control)
row,Sequence,binding signal
1,AGGTAC,0.935
2,CGGTAC,0.988
3,GAGGGC,0.623
4,TCGGTG,0.485
5,AGCGTA,0.891
6,GCATAT,0.998
7,GGCAGG,0.596
8,ACAACG,0.979
9,GCAGTT,0.788
10,GGACAC,0.735
11,ACGGTC,0.742
12,CGGGTT,0.928
13,GCGGTA,0.753
14,GGGTAA,0.954
15,TGGGGA,0.775
16,GGATGA,1.06
17,CGCGGA,0.931
18,CGGGGT,0.598
19,GCCCGT,0.67

row,Sequence,binding signal
1,ACCGTG,0.222
2,TGTAGT,0.925
3,GATCCG,0.899
4,GTGCCA,0.783
5,GAGACC,0.22
6,GTCGAT,0.656
7,GCTGGA,0.817
8,CGGCCA,0.749
9,CGGAAT,0.925
10,GGGTCC,0.806
11,GGGATA,0.724
12,AGAGAC,0.493
13,ACAGCG,0.832
14,TCGTAA,0.933
15,AGCCTG,0.92
16,CCCAGG,0.817
17,GCCAAG,0.873
18,GGTACG,0.824
19,AGACGG,0.351

# Molecular target: T3, SPDEF (UniProt O95238)
# T3 sequence: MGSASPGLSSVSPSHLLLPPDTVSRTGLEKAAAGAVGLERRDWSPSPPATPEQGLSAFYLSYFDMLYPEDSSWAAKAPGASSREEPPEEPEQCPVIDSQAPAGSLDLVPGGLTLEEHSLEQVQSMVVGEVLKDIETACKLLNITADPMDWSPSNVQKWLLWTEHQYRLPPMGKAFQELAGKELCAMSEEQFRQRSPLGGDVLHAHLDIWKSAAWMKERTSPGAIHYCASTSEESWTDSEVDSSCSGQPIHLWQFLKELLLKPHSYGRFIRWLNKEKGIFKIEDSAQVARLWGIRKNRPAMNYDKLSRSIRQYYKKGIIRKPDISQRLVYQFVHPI
# Assay: as above
# Conditions: 10 mM Tris-HCl pH 7.5, 50 mM NaCl, 1 mM DTT, 4% glycerol, room temperature, 30 min; GST-TFs on glutathione beads, 16-mer random dsDNA library, 0.1% …; high values mean tight binding; double strand, one strand shown; scale: fold enrichment (6-mer frequency, TF over GST control)
row,Sequence,binding signal
1,AGGTAC,0.936
2,GAGGGC,0.613
3,TCGGTG,0.496
4,AGCGTA,0.823
5,GGCAGG,0.615
6,ACAACG,0.913
7,GCAGTT,0.898
8,GGACAC,0.846
9,ACGGTC,0.749
10,GCGGTA,0.718
11,GGGTAA,0.831
12,TGGGGA,0.669
13,CGGGGT,0.656
14,GCCCGT,0.652
15,ACCGTG,0.231
16,GTGCCA,0.752
17,GAGACC,0.189
18,GTCGAT,0.756
19,GCTGGA,0.748
20,CGGCCA,0.842
21,GGGATA,0.859
22,AGAGAC,0.442
23,ACAGCG,0.729
24,TCGTAA,0.853
25,AGCCTG,0.813
26,CCCAGG,0.666
27,GCCAAG,0.854
28,GGTACG,0.78
29,AGACGG,0.366

# Reference: paper PMC7862700
